Results as given in PubChem BioAssay (NCI).
This is a selection; strong and weak results do not stand in their true shares.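 Note: values are percent growth. 100 is the growth of untreated cells, values between 100 and 0 indicate rising inhibition; between -100 and 0 indicates cell death.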 Calls of active or inactive are those of the source. How the source made its calls: active means growth percent below 10; inactive means the rest.

Tested on: CCRF-CEM leukemia
Test: NCI-60 one-dose screen, 48 h (100 = growth as untreated, 0 = no growth, -100 = all killed)
Settings: 10 µM

NS(=O)(=O)c1ccc(-n2cc(C(=O)NO)c(-c3ccc(Br)cc3)n2)cc1
growth: active: 2.75%
